Patent publication US20150038435A1 (Novo Nordisk A/S, priority 2012, published 2015)

Test: general procedure: Fmoc solid-phase peptide synthesis; 2-Chlorotrityl resin 100-200 mesh 1.7 mmol/g; TCTU / N,N-diisopropylethylamine
Conditions: whole synthesis, scale of the general procedure 2.31 g resin, 3.93 mmol, first Fmoc amino acid 2.62 mmol

N-hexadecanoyl-Glu-Ala-Ala-Pro-D-Phe-OH
purity (crude or final not stated) (ELSD, run 1): 98%
purity (crude or final not stated) (ELSD, run 2): 100%

N-tetradecanoyl-Glu-Ala-Ala-Pro-Phe-OH
purity (crude or final not stated) (ELSD): 100%

N-octadecanoyl-γGlu-Ala-Ala-Pro-Phe-OH
purity (crude or final not stated) (ELSD): 100%

N-dodecanoyl-Ala-Ala-Pro-DPhe-OH
purity (crude or final not stated) (ELSD): 100%

PEG12-Ala-Ala-Pro-Phe-OH
purity (crude or final not stated) (ELSD): 100%

N-tetradecanoyl-βAla-βAla-βAla-Pro-Phe-OH
purity (crude or final not stated) (ELSD): 100%

N-tetradecanoyl-Glu-Ala-Pro-Phe-OH
purity (crude or final not stated) (ELSD): 100%

N-tetradecanoyl-Glu-Ala-Ala-Pro-D-Phe-OH
purity (crude or final not stated) (ELSD): 100%

N-tetradecanoyl-γGlu-γGlu-Phe-Phe-OH
purity (crude or final not stated) (LC-MS (ELSD)): 99%

N-tetradecanoyl-Ala-Ala-Pro-DPhe-OH
purity (crude or final not stated) (ELSD): 100%

N-tetradecanoyl-His-Ala-Arg-Pro-Phe-OH
purity (crude or final not stated) (ELSD): 100%

N-dodecanoyl-γGlu-OEG-Pro-Arg-OH
purity (crude or final not stated) (ELSD): 100%

N-dodecanoyl-DAla-DAla-DPro-DPhe-OH
purity (crude or final not stated) (ELSD): 100%

N-tetradecanoyl-γGlu-βAla-βAla-Pro-Phe-OH
purity (crude or final not stated) (ELSD): 100%

N-tetradecanoyl-His-Ala-Ala-Pro-Phe-OH
purity (crude or final not stated) (ELSD): 100%

N-tetradecanoyl-γGlu-γGlu-Ala-Pro-Phe-OH
purity (crude or final not stated) (LC-MS (ELSD)): 98%

N-tetradecanoyl-Leu-betaAla-Ala-Pro-DPhe-OH
purity (crude or final not stated) (ELSD): 97%

N-dodecanoyl-βAla-βAla-Pro-Phe-OH
purity (crude or final not stated) (ELSD): 100%

N-octadecanoyl-Ala-Ala-Pro-Phe-OH
purity (crude or final not stated) (ELSD): 100%

N-hexadecanoyl-γGlu-Ala-Ala-Pro-Phe-OH
purity (crude or final not stated) (ELSD, run 1): 100%
purity (crude or final not stated) (ELSD, run 2): 98%
purity (crude or final not stated) (LC-MS (ELSD)): 98%

N-tetradecanoyl-Thr-Ala-Ala-Pro-Phe-OH
purity (crude or final not stated) (ELSD): 95%

N-tetradecanoyl-His-Ala-Trp-Pro-Phe-OH
purity (crude or final not stated) (ELSD): 100%

N-dodecandioyl-Ala-Ala-Pro-Phe-OH
purity (crude or final not stated) (ELSD): 100%

N-tetradecanoyl-γGlu-γGlu-Pro-Phe-OH
purity (crude or final not stated) (LC-MS (ELSD)): 100%

N-icosanoyl-γGlu-Ala-Ala-Pro-Phe-OH
purity (crude or final not stated) (ELSD): 100%

N-hexadecanoyl-γGlu-Ala-Pro-Phe-OH
purity (crude or final not stated) (ELSD): 100%

N-tetradecanoyl-Arg-Pro-Leu-bAla-Ala-Pro-D-Phe-OH
purity (crude or final not stated) (ELSD): 97%

N-dodecanoyl-Ala-Ala-Ala-Ala-Ala-Pro-Phe-OH
purity (crude or final not stated) (ELSD): 98%

N-dodecanoyl-γGlu-Ala-Ala-Pro-Phe-OH
purity (crude or final not stated) (ELSD): 95%

N-hexadecanoyl-γGlu-D-Ala-D-Ala-D-Pro-D-Phe-OH
purity (crude or final not stated) (LC-MS (ELSD)): 100%

N-dodecanoyl-γGlu-OEG-Ala-Ala-Pro-Phe-OH
purity (crude or final not stated) (ELSD): 95%

N-tetradecanoyl-γGlu-His-Ala-Arg-Pro-Phe-OH
purity (crude or final not stated) (LC-MS (ELSD)): 100%

N-tetradecanoy-γGlu-His-Ala-Ala-Pro-Tyr-OH
purity (crude or final not stated) (ELSD): 100%

N-tetradecanoyl-bAsp-Ala-Ala-Pro-Phe-OH
purity (crude or final not stated) (ELSD): 100%

N-icosanoyl-γGlu-Ala-Pro-Phe-OH
purity (crude or final not stated) (ELSD): 100%
purity (crude or final not stated) (LC-MS (ELSD)): 96%

N-tetradecanoyl-βAla-βAla-Pro-Phe-OH
purity (crude or final not stated) (ELSD): 100%

N-dodecanoyl-Ala-Ala-Pro-Phe-OH
purity (crude or final not stated) (ELSD): 100%

N-dodecanoyl-Ala-Ala-Pro-Leu-OH
purity (crude or final not stated) (ELSD): 100%

N-dodecanoyl-βAla-βAla-Pro-Phe-Pro-OH
purity (crude or final not stated) (ELSD): 98%

N-tetradecanoyl-Ala-Ala-Pro-Phe-OH
purity (crude or final not stated) (ELSD): 97%

N-hexadecanoyl-Ala-Ala-Pro-D-Phe-OH
purity (crude or final not stated) (ELSD): 100%

N-tetradecanoyl-γGlu-Ala-Arg-Pro-Phe-OH
purity (crude or final not stated) (ELSD): 100%

N-tetradecanoyl-Lys-Ala-Arg-Pro-Phe-OH
purity (crude or final not stated) (ELSD): 95%

N-dodecanoyl-Aib-Aib-Pro-Phe-OH
purity (crude or final not stated) (ELSD): 100%

N-dodecanoyl-Ala-Ala-Pro-His-OH
purity (crude or final not stated) (LC-MS (ELSD)): 100%

N-dodecanoyl-βAla-Ala-Pro-Phe-OH
purity (crude or final not stated) (ELSD): 99%

N-tetradecanoyl-γGlu-DAla-DPro-DPhe-OH
purity (crude or final not stated) (LC-MS (ELSD)): 100%

N-tetradecanoyl-βAla-Ala-Pro-Phe-OH
purity (crude or final not stated) (ELSD): 100%

N-eicosanoyl-Ala-Ala-Pro-Phe-OH
purity (crude or final not stated) (ELSD): 100%

N-hexadecanoyl-Thr-Ala-Ala-Pro-Phe-OH
purity (crude or final not stated) (ELSD): 96%

N-hexadecanoyl-γGlu-OEG-Ala-Ala-Pro-Phe-OH
purity (crude or final not stated) (ELSD): 98%

N-tetradecanoyl-Thr-Ala-Ala-Pro-Tyr-OH
purity (crude or final not stated) (ELSD): 96%

N-dodecanoyl-γGlu-His-Ala-Ala-Pro-Tyr-OH
purity (crude or final not stated) (ELSD): 100%

N-tetradecanoyl-Arg-Ala-Ala-Pro-Phe-OH
purity (crude or final not stated) (ELSD): 100%

N-tetradecanoyl-Arg-His-Ala-Arg-Pro-Phe-OH
purity (crude or final not stated) (LC-MS (ELSD)): 100%

N-dodecanoyl-OEG-OEG-DPhe-OEG-OH
purity (crude or final not stated) (ELSD): 100%

N-octadecanoyl-γGlu-Ala-Pro-Phe-OH
purity (crude or final not stated) (ELSD): 100%

Ala-Ala-Pro-Phe-OH
purity (crude or final not stated) (ELSD): 100%

N-tetradecanoyl-γGlu-Ala-Pro-D-Trp-OH
purity (crude or final not stated) (LC-MS (ELSD)): 97%

N-tetradecanoyl-γGlu-Ala-Pro-D-Phe-OH
purity (crude or final not stated) (LC-MS (ELSD)): 100%

N-tetradecanoyl-γGlu-OEG-Ala-Ala-Pro-Phe-OH
purity (crude or final not stated) (ELSD): 96%

N-tetradecanoyl-bAsp-Ala-Pro-Phe-OH
purity (crude or final not stated) (ELSD): 100%

N-tetradecanoyl-βAla-βAla-βAla-βAla-Pro-Phe-OH
purity (crude or final not stated) (ELSD): 98%

N-dodecanoyl-Leu-Thr-Trp-Pro-Tyr-OH
purity (crude or final not stated) (ELSD): 95%

N-dodecanoyl-γGlu-OEG-OEG-Arg-OH
purity (crude or final not stated) (ELSD): 100%

N-tetradecanoyl-Leu-Ala-Ala-Pro-Tyr-OH
purity (crude or final not stated) (ELSD): 100%

N-tetradecanoyl-Ala-Ala-Ala-Ala-Pro-Phe-OH
purity (crude or final not stated) (ELSD): 98%

N-tetradecanoyl-γGlu-D-Ala-D-Ala-D-Pro-D-Phe-OH
purity (crude or final not stated) (LC-MS (ELSD)): 100%

N-dodecanoyl-γGlu-OEG-OEG-DArg-OH
purity (crude or final not stated) (ELSD): 100%

N-tetradecanoyl-eLys-His-Ala-Arg-Pro-Phe-OH
purity (crude or final not stated) (LC-MS (ELSD)): 97%

N-dodecanoyl-OEG-OEG-Phe-OEG-OH
purity (crude or final not stated) (ELSD): 100%

N-tetradecanoyl-Glu-Ala-Ala-Pro-Trp-OH
purity (crude or final not stated) (ELSD): 100%

N-tetradecanoyl-γGlu-Ala-Pro-Trp-OH
purity (crude or final not stated) (LC-MS (ELSD)): 100%

N-tetradecanoyl-γGlu-Ala-Pro-Phe-OH
purity (crude or final not stated) (LC-MS (ELSD)): 99%

N-tetradecanoyl-D-His-D-Ala-D-Arg-D-Pro-D-Phe-OH
purity (crude or final not stated) (LC-MS (ELSD)): 100%

N-tetradecandioyl-Ala-Ala-Pro-Phe-OH
purity (crude or final not stated) (ELSD): 100%
